Experimental data taken from ChEMBL document CHEMBL4177706, “Exploiting a water network to achieve enthalpy-driven, bromodomain-selective BET inhibitors” (Bioorg Med Chem, 2018).
pEC50: −log10 of the molar value.

Test system: NALM-6
Test: cells
Conditions: Homo sapiens, NALM-6, 120 h

CCNC(=O)C[C@@H]1N=C(c2ccc(Cl)cc2)c2cc(OC)ccc2-n2c(C)nnc21 [MOLIBRESIB]
pEC50: 6.41
